The values below are quoted from earlier work in paper PMC7053747 (PLoS ONE, 2020).

The series addresses mu opioid receptor. The settings on record: cited from earlier work.

What is called Ki is the equilibrium dissociation constant of an inhibitor or competing ligand from its target. Consider `COc1cccc(C2(O)CCCCC2CN(C)C)c1` (stereo not shown) [tramadol, reference compound], for which the Ki is 12.5 µM.
